Measurements from patent US20230192895A1, “PHARMACOKINETIC & PHARMACODYNAMIC MODEL FOR DETERMINING EFFECTIVE DOSE OF ANTI-TICAGRELOR ANTIBODY” (PhaseBio Pharmaceuticals, Inc., priority 2021, published 2023).

Test system: P2Y12 reactivity units (PRU)
Conditions: read-out: EC50 (Emax model relating uncomplexed analyte to PD measure); final PK/PD model
Text: where Base refers to the baseline (prior to administration of Ticagrelor) value. Emaxi, EC50i, and the Hill coefficient (γ) are parameters to be estimated. The same structural model was used for PRU, VASP, and LTA.
The Emax parameter relating TICA to PRU (as well as VASP and LTA) was fixed to 90%. […] It is anticipated that this parameter value would be large^13 so it was fixed at a large value. […] This value was chosen based on literature^9, 14. Finally, fm was set equal to 0.30.
For parameters that were to be estimated, most of the prior distributions were uninformative or weakly informative.

For `CCCSc1nc(N[C@@H]2C[C@H]2c2ccc(F)c(F)c2)c2nnn([C@@H]3C[C@H](O)[C@@H](O)[C@H]3O)c2n1` [TAM], the EC50 was 98.5 nM.
